Assay results from PubChem BioAssay AID493014 (National Center for Advancing Translational Sciences (NCATS), 2011).
Among all 340,000 compounds or so, about 170 (0.05%) were called active. Inconclusive results, whose numbers are uncertain, are shown with a selection of clear calls. The call rests on the fitted dose curve; in most records, active means well fitted inhibition curve with a large enough effect in the signal ratio, with a control signal flat (not every such curve was filed as active); inconclusive means small, poorly fitted or top-dose-only effect, or effect the other way, or a change in a side signal; inactive means flat fitted curve, though single readings scatter; the % refers to the signal ratio. Potencies beside an inconclusive call are fits to weak or partial responses and may not hold up.
Potency means the concentration at half of the fitted maximal effect.

Assay: qHTS Assay to Find Inhibitors of Chronic Active B-Cell Receptor Signaling;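 on activity change, negative = inhibition: plate controls were basal doxycycline-induced cells for no effect and cells given 10 µM MG132 for full effect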
Settings: ABC-DLBCL IkBa-CBG/CBR reporter, luminescence ratio (green luciferase fused to IkBa over red control in TMD8 lymphoma cells), 4 h; activity change, negative = inhibition: at 46.1 µM (top of the series)
In short: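 Cell line TMD8 (human ABC DLBCL), stably expressing tet-inducible CBG68-IkBa fusion and CBR; IMDM/0.5% FBS; cpd up to 46 uM; dox induction, 4 h, 37C/5% CO2; dual luminescence; green/red ratio; MG132 control.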
For Cc1nnc(SCC(=O)Nc2cc(C(C)(C)C)nn2-c2ccccc2)s1, the activity change, negative = inhibition was inconclusive: 0.158%.
With N#Cc1c(Cl)nsc1NN the activity change, negative = inhibition was inconclusive: -0.916%.
With Cc1ccc(-c2ccc(/C=N/N3C(=O)C4C5C=CC(CC5)C4C3=O)o2)c([N+](=O)[O-])c1 (configuration not stated) the activity change, negative = inhibition was inconclusive: -12.7%.
With CCOC(=O)CC1C(=O)NCCN1S(=O)(=O)c1cccc(C(F)(F)F)c1 (configuration not stated) the activity change, negative = inhibition was inconclusive: 0.327%.
With CCc1nnc(NC(=O)c2cccc(C(=O)Nc3nnc(CC)s3)n2)s1 the activity change, negative = inhibition was inconclusive: -19.4%.
For CC1(CC(=O)N/N=C/c2ccc(-c3ccc(C(=O)O)cc3)o2)OCCO1, the Potency was inconclusive: 22.4 µM [falling, single point].
For CCN1CCC(=NNC(=O)c2ccco2)CC1, the Potency was inconclusive: 29.1 µM [falling, single point].
With CCOC(=O)c1cn(-c2c(Cl)cccc2Cl)c2cc(Cl)c([N+](=O)[O-])cc2c1=O the activity change, negative = inhibition was “inactive”.
With CN(C)c1cc(Cl)c2nonc2c1N the activity change, negative = inhibition was “inactive”.
With Cc1ccc(S(=O)(=O)Nc2c3ccccc3nc(=O)n2-c2ccccc2)cc1 the Potency was inconclusive: 3.66 µM [falling, single point].
In the case of O=C(CN(c1ccccc1)S(=O)(=O)c1ccccc1)N/N=C/c1ccc(OC2CSC2)cc1, the Potency was inconclusive: 18.4 µM [falling, partial curve].
In the case of CC1CC(C)CN(C(=O)CSc2nc(Cc3cccs3)nc3ccccc23)C1 (configuration not stated), the activity change, negative = inhibition was inconclusive: -7.36%.
For O=C(Nc1ncc([N+](=O)[O-])s1)c1cccc([N+](=O)[O-])c1, the Potency was inconclusive: 5.62 µM [rising, single point].
For CC(C)(C)c1ccc(C(=O)N2CCC(C(=O)NCCC3=CCCCC3)CC2)cc1, the activity change, negative = inhibition was “inactive”.
For COC(=O)[C@@]1(C)[C@H]2C(=O)N(Cc3ccccc3)C(=O)[C@H]2[C@H]2CN=C(SCc3ccc(C)cc3)N21, the activity change, negative = inhibition was “inactive”.
With CCC(C)Nc1nc(C)nc2c1oc1ccccc12 (configuration not stated) the activity change, negative = inhibition was inconclusive: 16.3%.
In the case of CCCC(=O)N(CCN1CCOCC1)c1nc2cc(C)c(C)cc2s1, the activity change, negative = inhibition was “inactive”.
In the case of CN1CCN(c2nc3c(c(=O)[nH]c(=O)n3C)n2CCOc2ccccc2)CC1, the activity change, negative = inhibition was inconclusive: -6.15%.
With CCOC(=O)c1c(C)[nH]c(C)c1C(=O)CN1C(=O)NC2(CCC(C)CC2)C1=O (configuration not stated) the Potency was inconclusive: 2.06 µM [falling, full curve].
For CCCc1cc(C(=O)Nc2sc(C)c(CC)c2C#N)no1, the activity change, negative = inhibition was inconclusive: 15.8%.
With Cc1ccnc(NC(=O)CCCOc2ccc(Cl)cc2C)c1 the activity change, negative = inhibition was inconclusive: 9.42%.
In the case of Cc1ccc(/C=N/Nc2nncc(-c3ccccc3)n2)o1, the activity change, negative = inhibition was inconclusive: -0.748%.
For Cc1cc(NC(=O)c2ccccc2)ncc1NC(=O)c1cccs1, the activity change, negative = inhibition was “inactive”.
For O=C(COC(=O)c1cccc(F)c1)Nc1cccnc1Cl, the activity change, negative = inhibition was “inactive”.
In the case of COc1ccccc1NC(=O)CN(Cc1ccco1)C(=O)c1ccc(-n2nc(C)cc2C)cc1, the activity change, negative = inhibition was “inactive”.
In the case of O=C(CN(c1cccc(Cl)c1)S(=O)(=O)c1ccc(Cl)cc1)N1CCc2ccccc2C1, the activity change, negative = inhibition was inconclusive: 1.23%.
In the case of CCOC(=O)CC(=O)Nc1ccc(C(=O)OCC)cc1, the activity change, negative = inhibition was inconclusive: 4.81%.
With COc1ccc(OCC(O)CN2CCC(CN3C(=O)c4cccc5cccc(c45)C3=O)CC2)cc1 (configuration not stated) the activity change, negative = inhibition was “inactive”.
For Cc1ccc(S(=O)(=O)N2CCCN(S(=O)(=O)c3ccc(C)c(C)c3)CC2)cc1C, the activity change, negative = inhibition was inconclusive: 19.1%.
In the case of CCN1CCCC(Sc2nc3c([nH]2)c(=S)n(C)c(=O)n3C)C1 (configuration not stated), the Potency was inconclusive: 15.8 µM [falling, single point].
In the case of N#Cc1ccc(C(=O)OCC(=O)Nc2cccnc2Cl)cc1, the activity change, negative = inhibition was “inactive”.
With COc1ccc(-c2nnc3ccc(SCC(=O)Nc4nccs4)nn23)cc1OC the activity change, negative = inhibition was inconclusive: -8.39%.
For CCCNC(=O)c1nnsc1S(=O)c1ccc(Cl)cc1 (configuration not stated), the activity change, negative = inhibition was inconclusive: 22.1%.
In the case of N#CC(C#N)=C1C=CC=CN1/C(=C\c1ccco1)C(=O)c1ccc(Br)cc1, the Potency was inconclusive: 4.11 µM [rising, full curve].
In the case of Cc1ccccc1-n1nnc2c(=O)oc3ccccc3c21, the activity change, negative = inhibition was inconclusive: 8.66%.
With COC(=O)C1=C(C)N(Cc2ccccc2)C(=NCCc2c[nH]c3ccccc23)N[C@H]1c1ccccc1 the activity change, negative = inhibition was inconclusive: 18.2%.
For COc1ccccc1Nc1ccc([N+](=O)[O-])cn1, the Potency was inconclusive: 15.8 µM [falling, partial curve].
With CCOC(=O)C1(Cc2cccc(OC)c2)CCN(CC(O)CO)CC1 (configuration not stated) the activity change, negative = inhibition was “inactive”.
In the case of COc1ccccc1NC(=O)C(=O)N1CCCC1, the Potency was inconclusive: 22.4 µM [falling, partial curve].
In the case of O=C(O)CC1=C(Nc2ccccc2)C(=O)N(c2ccccc2)C1c1ccc(Br)cc1 (configuration not stated), the Potency was inconclusive: 22.4 µM [falling, single point].
For Cc1cccc(C)c1OCc1cc(C(=O)N(C)Cc2cc(C3CC3)n[nH]2)no1, the activity change, negative = inhibition was inconclusive: -13.7%.
With Cc1cc(C)cc(OCC(O)CN2CC(C)OC(C)C2)c1 (configuration not stated) the activity change, negative = inhibition was inconclusive: 2.35%.
With O=C(Nc1cc(Cl)ccc1Cl)C1(c2cccs2)CCOCC1 the Potency was inconclusive: 1.26 µM [rising, full curve].
In the case of CCc1ccc(NC(=O)C2CCCN(S(=O)(=O)c3cnc[nH]3)C2)cc1 (configuration not stated), the Potency was inconclusive: 10 µM [falling, partial curve].
In the case of O=C(NCc1ccncc1)c1cccc(S(=O)(=O)Nc2ccc(SC(F)F)cc2)c1, the activity change, negative = inhibition was “inactive”.
With O=C(NN=C1c2ccccc2-c2ccccc21)c1cccc(Br)c1 the activity change, negative = inhibition was inconclusive: 13.7%.
For O=C(O)c1cc(O)c2c(c1)C(=O)c1cccc(O)c1C2=O, the Potency was inconclusive: 2.91 µM [falling, full curve].
With O=C1C=CC(=O)N1c1ccc(OC(F)F)cc1 the activity change, negative = inhibition was inconclusive: 2.64%.
With CC(=O)Nc1cccc(NC(=O)Nc2ccc(C)c(Cl)c2)c1 the activity change, negative = inhibition was inconclusive: -15.7%.
In the case of Cc1nn(C2CCS(=O)(=O)C2)c(Cl)c1/C=C/C(=O)OCC(=O)c1c[nH]c2ccccc12 (configuration not stated), the activity change, negative = inhibition was “inactive”.
With COc1ccc(C2=NC(c3ccccc3)CO2)cc1 (configuration not stated) the Potency was inconclusive: 4.61 µM [falling, partial curve].
In the case of CCOC(=O)C1CCCN(S(=O)(=O)c2ccc3c(c2)N(C(C)=O)CCO3)C1 (configuration not stated), the activity change, negative = inhibition was “inactive”.
